In the supplement of paper PMC10849652:
The other results are listed elsewhere or left out.

Protein sequences, listed by entry. Tags and fused reporters are not part of them. Lines headed by an entry give the natural chain unless they say otherwise; changes in a name come on top.
UniProt Q9P0I2: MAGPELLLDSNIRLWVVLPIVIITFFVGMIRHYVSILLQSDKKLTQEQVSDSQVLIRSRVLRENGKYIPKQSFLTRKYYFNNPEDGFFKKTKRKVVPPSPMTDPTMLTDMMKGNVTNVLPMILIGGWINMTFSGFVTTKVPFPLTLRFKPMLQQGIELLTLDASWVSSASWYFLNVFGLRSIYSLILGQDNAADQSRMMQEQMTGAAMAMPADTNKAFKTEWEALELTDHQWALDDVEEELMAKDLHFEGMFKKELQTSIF
UniProt Q9BW60: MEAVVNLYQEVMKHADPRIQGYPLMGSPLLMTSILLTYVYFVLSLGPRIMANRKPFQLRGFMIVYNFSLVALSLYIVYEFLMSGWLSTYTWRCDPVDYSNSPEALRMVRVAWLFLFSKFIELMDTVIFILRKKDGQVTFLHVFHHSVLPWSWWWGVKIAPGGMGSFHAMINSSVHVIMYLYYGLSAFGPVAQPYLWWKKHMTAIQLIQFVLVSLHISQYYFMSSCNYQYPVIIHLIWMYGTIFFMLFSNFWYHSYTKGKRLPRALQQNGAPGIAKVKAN
UniProt Q04637, whole entry, looked up: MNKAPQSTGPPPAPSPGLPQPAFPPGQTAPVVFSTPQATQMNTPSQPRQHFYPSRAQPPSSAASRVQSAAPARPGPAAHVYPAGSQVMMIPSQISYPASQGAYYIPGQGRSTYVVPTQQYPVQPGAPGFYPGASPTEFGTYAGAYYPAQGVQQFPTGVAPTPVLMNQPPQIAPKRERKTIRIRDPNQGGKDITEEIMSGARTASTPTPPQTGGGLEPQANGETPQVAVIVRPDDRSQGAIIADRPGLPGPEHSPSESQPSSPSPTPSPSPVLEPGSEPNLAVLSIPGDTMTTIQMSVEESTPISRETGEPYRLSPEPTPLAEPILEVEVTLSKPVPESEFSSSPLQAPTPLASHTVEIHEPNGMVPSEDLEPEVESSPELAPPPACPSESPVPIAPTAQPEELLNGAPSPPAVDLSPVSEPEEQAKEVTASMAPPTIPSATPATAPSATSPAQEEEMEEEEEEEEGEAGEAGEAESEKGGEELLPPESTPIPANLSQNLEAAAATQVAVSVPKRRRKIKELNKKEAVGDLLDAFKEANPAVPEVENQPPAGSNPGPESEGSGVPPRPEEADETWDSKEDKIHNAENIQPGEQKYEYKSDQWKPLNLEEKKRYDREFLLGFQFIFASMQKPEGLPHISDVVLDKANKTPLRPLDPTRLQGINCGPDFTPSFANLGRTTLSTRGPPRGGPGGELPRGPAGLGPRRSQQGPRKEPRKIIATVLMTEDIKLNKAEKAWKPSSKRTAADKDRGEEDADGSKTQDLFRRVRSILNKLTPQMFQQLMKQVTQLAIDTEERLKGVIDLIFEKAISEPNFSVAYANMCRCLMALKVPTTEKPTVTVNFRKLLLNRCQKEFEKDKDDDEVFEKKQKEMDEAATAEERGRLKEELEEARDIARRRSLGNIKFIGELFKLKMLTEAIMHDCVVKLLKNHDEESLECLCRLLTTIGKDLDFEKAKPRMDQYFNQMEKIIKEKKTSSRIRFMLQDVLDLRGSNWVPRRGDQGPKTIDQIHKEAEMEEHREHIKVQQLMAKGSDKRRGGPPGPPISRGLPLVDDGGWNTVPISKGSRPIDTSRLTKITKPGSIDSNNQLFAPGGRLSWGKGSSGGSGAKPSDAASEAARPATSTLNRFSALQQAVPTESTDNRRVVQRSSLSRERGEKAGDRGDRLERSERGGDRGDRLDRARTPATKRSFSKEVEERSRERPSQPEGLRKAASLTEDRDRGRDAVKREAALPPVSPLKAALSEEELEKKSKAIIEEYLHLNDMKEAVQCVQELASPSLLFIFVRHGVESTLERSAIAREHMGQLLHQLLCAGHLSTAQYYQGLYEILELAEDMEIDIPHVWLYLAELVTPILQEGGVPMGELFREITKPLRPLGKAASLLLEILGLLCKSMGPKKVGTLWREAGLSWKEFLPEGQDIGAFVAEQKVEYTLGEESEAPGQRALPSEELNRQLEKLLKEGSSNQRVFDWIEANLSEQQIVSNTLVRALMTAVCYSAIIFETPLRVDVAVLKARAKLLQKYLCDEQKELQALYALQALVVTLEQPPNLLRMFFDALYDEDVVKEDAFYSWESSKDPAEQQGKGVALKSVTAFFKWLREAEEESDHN
UniProt Q09472, whole entry, looked up: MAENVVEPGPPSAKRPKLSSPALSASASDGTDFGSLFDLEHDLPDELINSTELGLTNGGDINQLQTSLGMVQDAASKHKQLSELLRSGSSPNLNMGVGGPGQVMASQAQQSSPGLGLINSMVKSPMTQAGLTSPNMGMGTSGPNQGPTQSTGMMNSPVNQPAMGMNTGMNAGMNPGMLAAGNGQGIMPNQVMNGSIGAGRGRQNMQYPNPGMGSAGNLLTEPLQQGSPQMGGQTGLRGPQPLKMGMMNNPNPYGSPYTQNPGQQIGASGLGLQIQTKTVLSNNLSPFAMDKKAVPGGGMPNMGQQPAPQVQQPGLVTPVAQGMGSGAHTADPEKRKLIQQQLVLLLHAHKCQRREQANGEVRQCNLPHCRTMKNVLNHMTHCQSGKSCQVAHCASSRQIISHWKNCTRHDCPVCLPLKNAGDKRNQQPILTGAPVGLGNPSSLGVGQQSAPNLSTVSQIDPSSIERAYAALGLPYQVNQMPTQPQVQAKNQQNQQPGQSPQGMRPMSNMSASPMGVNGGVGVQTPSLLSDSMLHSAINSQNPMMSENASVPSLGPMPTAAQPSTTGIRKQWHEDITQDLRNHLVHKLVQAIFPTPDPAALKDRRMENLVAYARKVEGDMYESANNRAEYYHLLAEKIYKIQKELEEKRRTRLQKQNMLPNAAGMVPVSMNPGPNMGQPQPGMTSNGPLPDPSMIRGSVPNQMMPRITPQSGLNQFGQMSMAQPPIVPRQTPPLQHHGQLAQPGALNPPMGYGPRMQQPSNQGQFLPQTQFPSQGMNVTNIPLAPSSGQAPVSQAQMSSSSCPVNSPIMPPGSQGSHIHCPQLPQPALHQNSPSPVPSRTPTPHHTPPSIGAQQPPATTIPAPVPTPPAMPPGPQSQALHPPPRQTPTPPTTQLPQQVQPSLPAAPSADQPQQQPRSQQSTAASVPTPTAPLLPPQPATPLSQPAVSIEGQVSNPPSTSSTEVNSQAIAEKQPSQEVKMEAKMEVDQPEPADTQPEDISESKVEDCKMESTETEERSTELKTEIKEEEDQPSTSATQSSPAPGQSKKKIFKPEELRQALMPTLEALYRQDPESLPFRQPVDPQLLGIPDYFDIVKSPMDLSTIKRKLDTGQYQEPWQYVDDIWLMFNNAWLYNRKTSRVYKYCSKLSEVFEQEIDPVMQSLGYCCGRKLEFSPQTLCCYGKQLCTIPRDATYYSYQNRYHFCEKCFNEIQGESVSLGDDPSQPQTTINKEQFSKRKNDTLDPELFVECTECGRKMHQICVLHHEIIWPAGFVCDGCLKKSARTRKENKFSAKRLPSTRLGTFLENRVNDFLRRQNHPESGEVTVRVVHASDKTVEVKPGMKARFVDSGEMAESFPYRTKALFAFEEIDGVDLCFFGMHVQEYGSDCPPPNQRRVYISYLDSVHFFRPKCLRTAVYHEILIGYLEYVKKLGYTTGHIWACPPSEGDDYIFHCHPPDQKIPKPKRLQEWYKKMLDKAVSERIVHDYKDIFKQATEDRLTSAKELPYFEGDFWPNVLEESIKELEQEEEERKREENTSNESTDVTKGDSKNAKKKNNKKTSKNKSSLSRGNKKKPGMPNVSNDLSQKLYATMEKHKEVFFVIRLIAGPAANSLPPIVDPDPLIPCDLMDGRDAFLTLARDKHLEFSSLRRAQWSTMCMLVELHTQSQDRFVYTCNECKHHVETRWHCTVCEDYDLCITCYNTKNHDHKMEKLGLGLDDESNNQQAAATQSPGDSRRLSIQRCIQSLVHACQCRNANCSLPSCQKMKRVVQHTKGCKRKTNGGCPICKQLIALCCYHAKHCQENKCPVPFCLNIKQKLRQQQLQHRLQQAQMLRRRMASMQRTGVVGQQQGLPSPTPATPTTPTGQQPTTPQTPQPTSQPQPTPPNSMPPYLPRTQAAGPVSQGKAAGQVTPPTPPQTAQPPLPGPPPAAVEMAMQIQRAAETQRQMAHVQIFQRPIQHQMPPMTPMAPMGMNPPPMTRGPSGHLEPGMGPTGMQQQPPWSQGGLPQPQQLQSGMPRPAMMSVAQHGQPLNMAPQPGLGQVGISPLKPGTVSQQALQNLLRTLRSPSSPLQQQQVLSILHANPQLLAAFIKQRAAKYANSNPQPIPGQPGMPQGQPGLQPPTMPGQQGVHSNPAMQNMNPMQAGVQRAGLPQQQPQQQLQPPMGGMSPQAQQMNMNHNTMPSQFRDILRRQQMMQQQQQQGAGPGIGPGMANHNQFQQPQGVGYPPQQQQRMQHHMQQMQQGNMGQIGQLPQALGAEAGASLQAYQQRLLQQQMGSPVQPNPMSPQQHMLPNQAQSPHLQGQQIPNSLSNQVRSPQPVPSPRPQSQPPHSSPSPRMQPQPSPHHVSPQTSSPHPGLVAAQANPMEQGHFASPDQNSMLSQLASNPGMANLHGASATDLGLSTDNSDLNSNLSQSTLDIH
UniProt Q9NRA8: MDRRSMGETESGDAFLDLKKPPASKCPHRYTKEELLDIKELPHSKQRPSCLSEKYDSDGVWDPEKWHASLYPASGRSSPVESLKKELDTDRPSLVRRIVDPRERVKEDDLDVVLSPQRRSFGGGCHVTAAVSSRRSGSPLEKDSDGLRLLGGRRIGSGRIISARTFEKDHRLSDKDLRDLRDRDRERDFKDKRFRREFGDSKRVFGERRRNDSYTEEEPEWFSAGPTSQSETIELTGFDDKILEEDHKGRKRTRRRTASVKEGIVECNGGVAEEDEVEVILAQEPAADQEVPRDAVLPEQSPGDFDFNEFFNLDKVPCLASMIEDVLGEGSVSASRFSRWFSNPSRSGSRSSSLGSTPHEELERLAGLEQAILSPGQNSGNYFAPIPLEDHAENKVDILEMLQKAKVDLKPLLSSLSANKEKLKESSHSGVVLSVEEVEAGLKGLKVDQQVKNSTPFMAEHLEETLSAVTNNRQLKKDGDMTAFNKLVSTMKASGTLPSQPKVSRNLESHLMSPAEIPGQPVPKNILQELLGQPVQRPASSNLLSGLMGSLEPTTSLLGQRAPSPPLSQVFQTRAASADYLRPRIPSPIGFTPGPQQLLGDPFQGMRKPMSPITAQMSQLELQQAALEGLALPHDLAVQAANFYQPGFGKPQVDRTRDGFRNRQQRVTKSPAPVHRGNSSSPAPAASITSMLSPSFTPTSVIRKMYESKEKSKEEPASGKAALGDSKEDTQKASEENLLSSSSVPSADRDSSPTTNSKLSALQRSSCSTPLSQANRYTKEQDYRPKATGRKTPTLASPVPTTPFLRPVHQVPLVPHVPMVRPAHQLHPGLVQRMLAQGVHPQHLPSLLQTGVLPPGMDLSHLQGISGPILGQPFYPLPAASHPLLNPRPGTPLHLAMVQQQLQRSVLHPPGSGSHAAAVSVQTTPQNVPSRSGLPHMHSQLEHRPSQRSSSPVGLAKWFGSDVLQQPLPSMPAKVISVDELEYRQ
UniProt P49770: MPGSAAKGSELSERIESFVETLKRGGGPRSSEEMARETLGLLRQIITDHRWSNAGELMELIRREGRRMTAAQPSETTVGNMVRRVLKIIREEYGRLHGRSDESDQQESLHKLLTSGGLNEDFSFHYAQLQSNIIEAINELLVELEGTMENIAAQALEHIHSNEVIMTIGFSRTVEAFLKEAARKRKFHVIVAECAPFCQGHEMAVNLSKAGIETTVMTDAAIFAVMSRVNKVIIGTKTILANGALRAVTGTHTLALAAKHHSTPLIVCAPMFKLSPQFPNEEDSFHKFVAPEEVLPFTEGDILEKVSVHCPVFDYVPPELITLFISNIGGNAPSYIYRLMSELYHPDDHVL
UniProt O43768: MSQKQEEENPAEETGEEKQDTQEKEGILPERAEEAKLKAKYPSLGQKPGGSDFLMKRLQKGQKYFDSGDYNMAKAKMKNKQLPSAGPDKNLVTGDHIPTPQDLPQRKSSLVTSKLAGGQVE
UniProt O94919: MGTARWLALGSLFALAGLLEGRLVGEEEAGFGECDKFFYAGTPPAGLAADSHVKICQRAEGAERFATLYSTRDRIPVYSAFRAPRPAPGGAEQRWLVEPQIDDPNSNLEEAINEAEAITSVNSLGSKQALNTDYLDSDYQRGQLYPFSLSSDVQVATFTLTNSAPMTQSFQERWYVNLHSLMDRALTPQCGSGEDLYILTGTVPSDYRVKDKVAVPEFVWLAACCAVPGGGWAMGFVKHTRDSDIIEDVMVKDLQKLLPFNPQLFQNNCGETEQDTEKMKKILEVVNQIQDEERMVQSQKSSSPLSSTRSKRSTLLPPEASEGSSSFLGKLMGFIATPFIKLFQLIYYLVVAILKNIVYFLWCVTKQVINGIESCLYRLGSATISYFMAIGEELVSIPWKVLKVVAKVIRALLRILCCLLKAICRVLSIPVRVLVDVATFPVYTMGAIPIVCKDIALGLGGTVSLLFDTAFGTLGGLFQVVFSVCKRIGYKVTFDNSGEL

Experiments:
Test in all cases: log2 fold change, soluble protein after heating vs DMSO (PISA); higher = thermal stabilisation; K562 cells, 10 uM, 30 min; active = over 0.2 and 3.5 SD of the protein, either way, in both replicates (recomputed)
[1] = compound: CC1=C(C=C(C=C1)NC(=O)C2=CC(=CC=C2)C(C)(C)C#N)NC3=CC4=C(C=C3)N=CN(C4=O)C
Procedure, shortened: (§1)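 Soluble protein was defined as the supernatant after 21,000xg for 90 min. It came from K562 cells at 2×10^6 cells/mL given 10 μM compound for 30 min, heated in aliquots for 3 min across 48°C-58°C, pooled, and extracted in PBS with 0.5% NP-40 at 4°C, and was quantified by TMTpro 16plex LC-MS/MS with equalised channel sums. Thermal stability against control samples, from duplicates, is reported as log2 fold change.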

[2] = compound: CC1=C(C=C(C=C1)NC(=O)C2=CC(=CC=C2)N(C)C)NC(=O)C3=CC=C(C=C3)O
Procedure, shortened: as §1

[3] = compound: CC1=CC=C(C=C1)SC2=C3C=C(SC3=CN=C2)C(=O)N
Procedure, shortened: as §1

[4] = compound: CC1=NC(=CC=C1)C2=C(N=C(N2)C(C)(C)C)C3=CC4=NC=CN=C4C=C3
Procedure, shortened: as §1

Nexturastat A = compound: CCCCN(Cc1ccc(C(=O)NO)cc1)C(=O)Nc1ccccc1 [Nexturastat A]
Procedure, shortened: as §1

vemurafenib = compound: CCCS(=O)(=O)Nc1ccc(F)c(C(=O)c2c[nH]c3ncc(-c4ccc(Cl)cc4)cc23)c1F [vemurafenib]
Procedure, shortened: as §1

[5] = compound: CCCS(=O)(=O)Nc1ccc(F)c(C(=O)c2c[nH]c3ncc(Cl)cc23)c1F
Procedure, shortened: as §1

[6] = compound: CCCc1cc(C)[nH]c(=O)c1CNC(=O)c1cc(-c2ccnc(N3CCN(C)CC3)c2)cc2c1cnn2C(C)C
Procedure, shortened: as §1

givinostat = compound: CCN(CC)Cc1ccc2cc(COC(=O)Nc3ccc(C(=O)NO)cc3)ccc2c1 [givinostat]
Procedure, shortened: as §1

barasertib = compound: CCN(CCCOc1ccc2c(Nc3cc(CC(=O)Nc4cccc(F)c4)[nH]n3)ncnc2c1)CCOP(=O)(O)O [barasertib]
Procedure, shortened: as §1

Measured: log2 fold change

EIF2S2 (UniProt P20042)
inactive: [1] 0.002 | [2] 0.012 | [3] -0.036 | [4] -0.039 | Nexturastat A 0.136 | vemurafenib -0.055 | [5] -0.017 | [6] 0.039 | givinostat 0.019 | barasertib 0.001

EI24 (UniProt O14681)
inactive: [1] -0.056 | [2] 0.037 | [3] 0.013 | [4] 0.147 | Nexturastat A -0.112 | vemurafenib 0.05 | [5] 0.023 | [6] -0.083 | givinostat -0.02 | barasertib -0.03

EIF3A (UniProt Q14152)
inactive: [1] 0.013 | [2] -0.046 | [3] 0.039 | [4] -0.012 | Nexturastat A 0.166 | vemurafenib 0.043 | [5] 0.076 | [6] 0.069 | givinostat 0.074 | barasertib 0.067

EIF4A1 (UniProt P60842)
inactive: [1] 0.106 | [2] -0.017 | [3] 0.061 | [4] 0.049 | Nexturastat A -0.115 | vemurafenib 0.055 | [5] 0.089 | [6] 0.151 | givinostat 0.06 | barasertib 0.026

ELP1 (UniProt O95163)
inactive: [1] 0 | [2] 0.015 | [3] 0.004 | [4] 0.015 | Nexturastat A -0.012 | vemurafenib -0.008 | [5] 0.018 | [6] -0.066 | givinostat -0.004 | barasertib 0.009

EEF1A1P5 (UniProt Q5VTE0)
inactive: [1] -0.003 | [2] 0.003 | [3] 0.008 | [4] 0.026 | Nexturastat A -0.021 | vemurafenib -0.01 | [5] -0.005 | [6] -0.239 | givinostat -0.014 | barasertib 0.01

EML2 isoform 3 (UniProt O95834)
inactive: [1] 0 | [2] 0 | [3] -0.018 | [4] 0.034 | Nexturastat A -0.158 | vemurafenib -0.003 | [5] 0.006 | [6] -0.026 | givinostat -0.056 | barasertib 0

EMC3 (UniProt Q9P0I2)
inactive: [1] 0.039 | [2] -0.016 | [3] 0.002 | [4] 0.015 | Nexturastat A -0.027 | vemurafenib 0.037 | [5] 0.019 | [6] -0.076 | givinostat -0.027 | barasertib -0.012

ELOVL1 (UniProt Q9BW60)
inactive: [1] -0.035 | [2] -0.065 | [3] 0.064 | [4] 0.044 | Nexturastat A 0.03 | vemurafenib -0.032 | [5] 0.116 | [6] -0.063 | givinostat 0.067 | barasertib 0.028

EIF3H (UniProt O15372)
inactive: [1] -0.014 | [2] -0.003 | [3] 0.015 | [4] 0.021 | Nexturastat A 0.047 | vemurafenib 0.012 | [5] 0.02 | [6] 0.017 | givinostat 0.046 | barasertib 0.035

EHBP1L1 (UniProt Q8N3D4)
inactive: [1] 0 | [2] -0.02 | [3] -0.003 | [4] -0.043 | Nexturastat A 0.011 | vemurafenib 0.034 | [5] 0.007 | [6] 0.025 | givinostat 0.026 | barasertib 0.016

EIF4G1 isoform 8 (UniProt Q04637)
inactive: [1] -0.028 | [2] -0.011 | [3] 0.004 | [4] 0.006 | Nexturastat A 0.169 | vemurafenib 0.013 | [5] 0.028 | [6] 0.119 | givinostat 0.057 | barasertib 0.067

EIF4G2 (UniProt P78344)
inactive: [1] -0.014 | [2] 0.058 | [3] 0.031 | [4] -0.026 | Nexturastat A 0.437 | vemurafenib 0.049 | [5] 0.089 | [6] 0.161 | givinostat 0.163 | barasertib 0.032

EIF4A2 isoform 2 (UniProt Q14240)
inactive: [1] -0.006 | [2] -0.031 | [3] 0.036 | [4] 0.044 | Nexturastat A -0.166 | vemurafenib 0.019 | [5] 0.039 | [6] 0.024 | givinostat 0.008 | barasertib 0.015

EIF2B5 (UniProt Q13144)
inactive: [1] 0.035 | [2] -0.006 | [3] -0.015 | [4] 0.009 | Nexturastat A 0.064 | vemurafenib 0.028 | [5] 0.056 | [6] 0.034 | givinostat -0.031 | barasertib 0.008

EIPR1 (UniProt Q53HC9)
inactive: [1] -0.005 | [2] -0.051 | [3] 0.068 | [4] 0.004 | Nexturastat A 0.044 | vemurafenib 0.019 | [5] 0.042 | [6] 0.029 | givinostat 0.034 | barasertib 0.065

EP300 (UniProt Q09472)
inactive: [1] -0.038 | [2] 0.016 | [3] 0.042 | [4] -0.062 | Nexturastat A 0.036 | vemurafenib 0.041 | [5] 0.055 | [6] 0.073 | givinostat -0.004 | barasertib -0.006

EMP3 (UniProt P54852)
inactive: [1] -0.012 | [2] -0.023 | [3] 0.015 | [4] 0 | Nexturastat A 0.012 | vemurafenib -0.037 | [5] -0.033 | [6] -0.635 | givinostat 0.001 | barasertib -0.061

EHD4 (UniProt Q9H223)
inactive: [1] -0.019 | [2] -0.012 | [3] 0 | [4] 0.031 | Nexturastat A -0.075 | vemurafenib 0.014 | [5] 0.033 | [6] -0.003 | givinostat 0.003 | barasertib 0.029

EIF3G (UniProt O75821)
inactive: [1] 0.017 | [2] -0.038 | [3] -0.03 | [4] -0.017 | Nexturastat A 0.069 | vemurafenib 0.02 | [5] 0.043 | [6] 0.04 | givinostat 0.055 | barasertib 0.007

EIF4ENIF1 isoform 3 (UniProt Q9NRA8)
inactive: [1] 0.002 | [2] -0.019 | [3] 0.007 | [4] -0.002 | Nexturastat A 0.126 | vemurafenib 0.056 | [5] -0.033 | [6] 0.041 | givinostat 0.029 | barasertib 0.005

EIF4E isoform 2 (UniProt P06730)
inactive: [1] 0.044 | [2] -0.035 | [3] 0.008 | [4] 0.02 | Nexturastat A -0.078 | vemurafenib 0.078 | [5] 0.109 | [6] -0.086 | givinostat 0.012 | barasertib -0.07

EIF4EBP1 (UniProt Q13541)
inactive: [1] 0.013 | [2] 0.018 | [3] 0.024 | [4] -0.008 | Nexturastat A 0.123 | vemurafenib 0.228 | [5] 0 | [6] 0.074 | givinostat 0.002 | barasertib 0.042

EIF2B2 (UniProt P49770)
inactive: [1] 0.016 | [2] 0.021 | [3] 0.001 | [4] 0 | Nexturastat A -0.023 | vemurafenib 0.01 | [5] 0.063 | [6] -0.012 | givinostat 0.007 | barasertib -0.003

ENSA isoform 3 (UniProt O43768)
inactive: [1] -0.039 | [2] -0.013 | [3] -0.004 | [4] 0.055 | Nexturastat A -0.187 | vemurafenib -0.024 | [5] -0.032 | [6] -0.03 | givinostat -0.109 | barasertib -0.012

ENDOD1 (UniProt O94919)
inactive: [1] -0.026 | [2] 0.028 | [3] -0.021 | [4] -0.066 | Nexturastat A -0.047 | vemurafenib -0.05 | [5] -0.06 | [6] -0.022 | givinostat 0.005 | barasertib -0.013

Retrieved one by one from the list above, 2 records:
ENSA isoform 3 (UniProt O43768)
inactive: [1] -0.039 | [2] -0.013 | [3] -0.004 | [4] 0.055 | Nexturastat A -0.187 | vemurafenib -0.024 | [5] -0.032 | [6] -0.03 | givinostat -0.109 | barasertib -0.012

ENDOD1 (UniProt O94919)
inactive: [1] -0.026 | [2] 0.028 | [3] -0.021 | [4] -0.066 | Nexturastat A -0.047 | vemurafenib -0.05 | [5] -0.06 | [6] -0.022 | givinostat 0.005 | barasertib -0.013

The list goes on:

EIF3L (UniProt Q9Y262)
inactive: [1] 0.022 | [2] 0.006 | [3] -0.001 | [4] 0.01 | Nexturastat A 0.07 | vemurafenib 0.052 | [5] 0.029 | [6] 0.005 | givinostat -0.02 | barasertib 0

EMG1 (UniProt Q92979)
inactive: [1] 0.04 | [2] 0.007 | [3] -0.044 | [4] 0.038 | Nexturastat A 0.091 | vemurafenib -0.034 | [5] 0 | [6] -0.001 | givinostat -0.089 | barasertib -0.091

EMC4 (UniProt Q5J8M3)
inactive: [1] 0.1 | [2] -0.023 | [3] -0.019 | [4] -0.021 | Nexturastat A 0.011 | vemurafenib 0.072 | [5] 0.02 | [6] 0.016 | givinostat -0.048 | barasertib 0.059

EIF2AK1 (UniProt Q9BQI3)
inactive: [1] -0.027 | [2] -0.007 | [3] 0.079 | [4] -0.019 | Nexturastat A -0.087 | vemurafenib 0.005 | [5] 0.044 | [6] 0.179 | givinostat -0.051 | barasertib -0.017
